Results are given in words; binding and its absence hold for the method and conditions named. Binding seen in cells or lysates may run through a third protein. Some entries that bind do so weakly or less than the wild type. Tags and fused reporters may be left off the sequences shown.
T1: human Fuzzy-FLAG (human) (UniProt Q9BT04)
T1 sequence: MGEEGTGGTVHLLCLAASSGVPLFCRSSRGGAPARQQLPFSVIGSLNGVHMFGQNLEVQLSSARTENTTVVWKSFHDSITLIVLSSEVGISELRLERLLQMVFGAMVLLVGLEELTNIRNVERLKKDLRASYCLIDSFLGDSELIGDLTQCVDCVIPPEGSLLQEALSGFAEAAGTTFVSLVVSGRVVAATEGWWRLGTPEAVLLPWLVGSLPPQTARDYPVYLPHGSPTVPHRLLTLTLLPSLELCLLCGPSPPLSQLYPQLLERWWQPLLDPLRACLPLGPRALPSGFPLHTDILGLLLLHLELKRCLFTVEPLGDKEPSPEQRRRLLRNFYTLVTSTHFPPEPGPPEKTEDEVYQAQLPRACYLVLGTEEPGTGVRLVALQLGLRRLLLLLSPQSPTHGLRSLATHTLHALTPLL

T2: human GFP-p190A (human) (UniProt Q9NRY4)
T2 sequence: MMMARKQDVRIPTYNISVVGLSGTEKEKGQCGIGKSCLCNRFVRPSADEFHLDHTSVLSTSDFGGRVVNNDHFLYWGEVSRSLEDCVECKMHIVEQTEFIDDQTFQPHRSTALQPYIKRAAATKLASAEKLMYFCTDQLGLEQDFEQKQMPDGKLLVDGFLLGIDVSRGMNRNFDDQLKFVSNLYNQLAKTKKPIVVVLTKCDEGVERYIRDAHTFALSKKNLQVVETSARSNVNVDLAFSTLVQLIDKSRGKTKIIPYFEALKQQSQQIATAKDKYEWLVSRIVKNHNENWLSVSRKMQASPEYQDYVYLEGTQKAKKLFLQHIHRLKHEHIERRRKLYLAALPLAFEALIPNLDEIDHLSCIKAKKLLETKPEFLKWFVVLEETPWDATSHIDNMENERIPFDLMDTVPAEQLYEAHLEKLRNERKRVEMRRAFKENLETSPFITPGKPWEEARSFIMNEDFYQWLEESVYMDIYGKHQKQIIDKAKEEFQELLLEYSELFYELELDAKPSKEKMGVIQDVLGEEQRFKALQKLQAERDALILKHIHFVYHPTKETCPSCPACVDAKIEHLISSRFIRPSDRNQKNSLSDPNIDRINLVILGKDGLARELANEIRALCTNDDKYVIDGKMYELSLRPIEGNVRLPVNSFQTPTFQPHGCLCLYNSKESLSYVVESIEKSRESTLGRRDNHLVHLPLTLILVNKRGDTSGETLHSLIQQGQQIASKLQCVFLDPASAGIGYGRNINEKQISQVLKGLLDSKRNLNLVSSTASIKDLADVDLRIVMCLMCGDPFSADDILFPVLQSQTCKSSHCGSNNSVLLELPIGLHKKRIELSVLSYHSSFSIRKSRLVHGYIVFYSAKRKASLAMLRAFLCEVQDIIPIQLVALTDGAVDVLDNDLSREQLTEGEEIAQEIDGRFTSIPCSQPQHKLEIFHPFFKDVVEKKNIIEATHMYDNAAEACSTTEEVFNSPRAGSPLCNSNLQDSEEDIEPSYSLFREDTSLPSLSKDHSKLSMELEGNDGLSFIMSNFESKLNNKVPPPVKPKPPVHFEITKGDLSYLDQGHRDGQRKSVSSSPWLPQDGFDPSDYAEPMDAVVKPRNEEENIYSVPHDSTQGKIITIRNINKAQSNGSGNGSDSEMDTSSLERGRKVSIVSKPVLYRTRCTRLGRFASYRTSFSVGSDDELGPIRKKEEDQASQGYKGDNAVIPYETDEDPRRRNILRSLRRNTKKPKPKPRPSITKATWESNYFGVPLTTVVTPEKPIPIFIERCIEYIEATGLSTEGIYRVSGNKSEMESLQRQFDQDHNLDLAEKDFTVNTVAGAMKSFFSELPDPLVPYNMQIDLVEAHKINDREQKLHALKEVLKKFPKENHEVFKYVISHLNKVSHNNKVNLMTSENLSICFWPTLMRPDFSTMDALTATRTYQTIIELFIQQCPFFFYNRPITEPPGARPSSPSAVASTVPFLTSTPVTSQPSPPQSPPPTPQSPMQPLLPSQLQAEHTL


Columns and labels:
human Fuzzy-FLAG (human) = molecular target: T1, human Fuzzy-FLAG (human); assay: co-IP; HEK293T cells co-transfected with Fuzzy-Flag and p190A-GFP cDNA; lysis in 50 mM HEPES pH 7.5, 150 mM NaCl, 0.5% Triton X-100; lysate incubated overnight at 4°C with anti-p190A RhoGAP or anti-FLAG antibody, protein A/G or protein A agarose; washes with 200 mM and 500 mM NaCl; western blot with anti-FLAG or anti-p190A
human GFP-p190A (human) = molecular target: T2, human GFP-p190A (human); assay: as above

| binding (human Fuzzy-FLAG (human)) | binding (human GFP-p190A (human)) | Binder |
| --- | --- | --- |
| binds |  | human GFP-p190A (protein, UniProt Q9NRY4 1-1499) MMMARKQDVRIPTYNISVVGLSGTEKEKGQCGIGKSCLCNRFVRPSADEFHLDHTSVLSTSDFGGRVVNNDHFLYWGEVSRSLEDCVECKMHIVEQTEFIDDQTFQPHRSTALQPYIKRAAATKLASAEKLMYFCTDQLGLEQDFEQKQMPDGKLLVDGFLLGIDVSRGMNRNFDDQLKFVSNLYNQLAKTKKPIVVVLTKCDEGVERYIRDAHTFALSKKNLQVVETSARSNVNVDLAFSTLVQLIDKSRGKTKIIPYFEALKQQSQQIATAKDKYEWLVSRIVKNHNENWLSVSRKMQASPEYQDYVYLEGTQKAKKLFLQHIHRLKHEHIERRRKLYLAALPLAFEALIPNLDEIDHLSCIKAKKLLETKPEFLKWFVVLEETPWDATSHIDNMENERIPFDLMDTVPAEQLYEAHLEKLRNERKRVEMRRAFKENLETSPFITPGKPWEEARSFIMNEDFYQWLEESVYMDIYGKHQKQIIDKAKEEFQELLLEYSELFYELELDAKPSKEKMGVIQDVLGEEQRFKALQKLQAERDALILKHIHFVYHPTKETCPSCPACVDAKIEHLISSRFIRPSDRNQKNSLSDPNIDRINLVILGKDGLARELANEIRALCTNDDKYVIDGKMYELSLRPIEGNVRLPVNSFQTPTFQPHGCLCLYNSKESLSYVVESIEKSRESTLGRRDNHLVHLPLTLILVNKRGDTSGETLHSLIQQGQQIASKLQCVFLDPASAGIGYGRNINEKQISQVLKGLLDSKRNLNLVSSTASIKDLADVDLRIVMCLMCGDPFSADDILFPVLQSQTCKSSHCGSNNSVLLELPIGLHKKRIELSVLSYHSSFSIRKSRLVHGYIVFYSAKRKASLAMLRAFLCEVQDIIPIQLVALTDGAVDVLDNDLSREQLTEGEEIAQEIDGRFTSIPCSQPQHKLEIFHPFFKDVVEKKNIIEATHMYDNAAEACSTTEEVFNSPRAGSPLCNSNLQDSEEDIEPSYSLFREDTSLPSLSKDHSKLSMELEGNDGLSFIMSNFESKLNNKVPPPVKPKPPVHFEITKGDLSYLDQGHRDGQRKSVSSSPWLPQDGFDPSDYAEPMDAVVKPRNEEENIYSVPHDSTQGKIITIRNINKAQSNGSGNGSDSEMDTSSLERGRKVSIVSKPVLYRTRCTRLGRFASYRTSFSVGSDDELGPIRKKEEDQASQGYKGDNAVIPYETDEDPRRRNILRSLRRNTKKPKPKPRPSITKATWESNYFGVPLTTVVTPEKPIPIFIERCIEYIEATGLSTEGIYRVSGNKSEMESLQRQFDQDHNLDLAEKDFTVNTVAGAMKSFFSELPDPLVPYNMQIDLVEAHKINDREQKLHALKEVLKKFPKENHEVFKYVISHLNKVSHNNKVNLMTSENLSICFWPTLMRPDFSTMDALTATRTYQTIIELFIQQCPFFFYNRPITEPPGARPSSPSAVASTVPFLTSTPVTSQPSPPQSPPPTPQSPMQPLLPSQLQAEHTL |
|  | binds | human Fuzzy-FLAG (protein, UniProt Q9BT04 1-418) MGEEGTGGTVHLLCLAASSGVPLFCRSSRGGAPARQQLPFSVIGSLNGVHMFGQNLEVQLSSARTENTTVVWKSFHDSITLIVLSSEVGISELRLERLLQMVFGAMVLLVGLEELTNIRNVERLKKDLRASYCLIDSFLGDSELIGDLTQCVDCVIPPEGSLLQEALSGFAEAAGTTFVSLVVSGRVVAATEGWWRLGTPEAVLLPWLVGSLPPQTARDYPVYLPHGSPTVPHRLLTLTLLPSLELCLLCGPSPPLSQLYPQLLERWWQPLLDPLRACLPLGPRALPSGFPLHTDILGLLLLHLELKRCLFTVEPLGDKEPSPEQRRRLLRNFYTLVTSTHFPPEPGPPEKTEDEVYQAQLPRACYLVLGTEEPGTGVRLVALQLGLRRLLLLLSPQSPTHGLRSLATHTLHALTPLL |
